Test results: PubChem BioAssay AID1439 (NMMLSC, 2008)
About 770 (0.35%) of roughly 220,000 compounds were called active. Inconclusive means that the source gave no clear call. Such entries were picked first, then a sample of the others. No stated cut-off is given here; in the data, active means binding response below about 49% or above about 150%; inconclusive means no clear call, values can overlap the other calls; inactive means in between.

By UniProt entry, the sequences of proteins in these tests, tags left out.
UniProt P09471, whole entry, looked up: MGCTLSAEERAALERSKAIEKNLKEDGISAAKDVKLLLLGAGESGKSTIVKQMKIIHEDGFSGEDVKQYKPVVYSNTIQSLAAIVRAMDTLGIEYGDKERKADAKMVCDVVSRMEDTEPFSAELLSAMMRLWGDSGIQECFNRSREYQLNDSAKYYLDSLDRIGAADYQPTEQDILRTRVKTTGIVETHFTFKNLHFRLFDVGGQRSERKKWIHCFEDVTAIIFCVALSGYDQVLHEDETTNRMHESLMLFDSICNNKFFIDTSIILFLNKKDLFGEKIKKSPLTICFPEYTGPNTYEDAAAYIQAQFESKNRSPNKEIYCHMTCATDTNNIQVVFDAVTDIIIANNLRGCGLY

The compounds below were run against Guanine nucleotide-binding protein G(o) subunit alpha (Homo sapiens) (UniProt P09471) (assay: RGS7-Galphao binding modulators, primary screen, biochemical, multiplexed bead flow cytometry (AID 1439;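 further: fluorescent Galphao held in activated GDP-AlF4 state binding bead-coupled RGS7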)). Details: at 10 µM, actives lie on both sides.
In the case of `O=C(O)CSc1nnc(Cc2cccc3ccccc23)n1-c1cc(C(F)(F)F)cc(C(F)(F)F)c1`, the binding response (% of control) is reported as inconclusive: 98.5%.
With `COC(=O)[C@@H]1C[C@]2(OC(=O)c3ccccc3)C=CC(=O)C[C@@H]2N1C(=O)OCc1ccccc1` the binding response (% of control) was inactive: 99.3%.
`CC(C)(C)NC(=O)C(OC(=O)c1cccs1)c1ccc(C#N)cc1` (stereo unspecified) was tested, and the binding response (% of control) was inactive: 102%.
With `COC(C[C@@H](O)[C@@H](C)[C@H](O)COCc1ccccc1)OC` the binding response (% of control) was inconclusive: 137%.
`CC(C)Nc1nc2c(c(=O)n(C)c(=O)n2C)n1C` was tested, and the binding response (% of control) was inconclusive: 89.6%.
With `COCCNC(=S)N1CCN(Cc2cccc(OC)c2)CC1` the binding response (% of control) was inconclusive: 113%.
For `O=C(CSc1n[nH]c(=O)[nH]c1=O)NC1CC1`, the binding response (% of control) was inconclusive: 89%.
In the case of `CCCCOc1ccc(Nc2cc(Cl)ccc2C(=O)O)cn1`, the binding response (% of control) is reported as inconclusive: 98.6%.
With `CCOC(=O)CN1C(=O)N[C@@H](c2ccc(Br)cc2)C(C(=O)OC)=C1C` the binding response (% of control) was inconclusive: 100%.
`COc1ccc(CN(Cc2cccn2C)S(=O)(=O)c2ccccc2)cc1` was tested, and the binding response (% of control) was inconclusive: 92.4%.
In the case of `C=CCc1c(O)c(CC)cc2c(C)cc(=O)oc12`, the binding response (% of control) is reported as inconclusive: 94.8%.
For `N#Cc1c(-c2ccccc2)ccn(Cc2ccc(Cl)cc2)c1=O`, the binding response (% of control) was inactive: 111%.
`COc1ccc(C(=O)NNC2=C(C(=O)C(F)(F)F)CCC2)cc1` was tested, and the binding response (% of control) was inconclusive: 98.8%.
In the case of `S=c1[nH]nc2n1CCCN2`, the binding response (% of control) is reported as inconclusive: 604%.
For `COC(CNC(=O)CNC(=S)N(Cc1ccccc1)Cc1cccnc1)OC`, the binding response (% of control) was inactive: 94.1%.
With `CC(C)(C)C(=O)NCCCNc1ccc([N+](=O)[O-])cc1` the binding response (% of control) was inconclusive: 100%.
For `COc1cc(/C=N/n2cnc3c(sc4nc(C)cc(C)c43)c2=O)ccc1O`, the binding response (% of control) was inconclusive: 115%.
In the case of `CC(=O)Nc1ccc(Nc2ncnc(N)c2[N+](=O)[O-])cc1`, the binding response (% of control) is reported as inconclusive: 234%.
For `COc1ccc(OCCSc2nc3nc(C)cc(C)n3n2)cc1`, the binding response (% of control) was inconclusive: 120%.
In the case of `O=C(N/N=C/c1cccnc1)c1cc(-c2ccccc2OCc2ccccc2)n[nH]1`, the binding response (% of control) is reported as inconclusive: 120%.
With `CCOC(=O)NC(=O)CSc1ccc2ccccc2n1` the binding response (% of control) was inconclusive: 92.9%.
For `Cc1ccc(C)c(Nc2c([N+](=O)[O-])c(=O)oc3ccccc23)c1`, the binding response (% of control) was inconclusive: 105%.
`Cc1nc2nc(N)nn2c(C)c1C/C=C/c1ccccc1` was tested, and the binding response (% of control) was inconclusive: 94.2%.
In the case of `COc1cc(OC)cc(C(=O)NCCN2C(=O)S/C(=C\c3cccs3)C2=O)c1`, the binding response (% of control) is reported as inconclusive: 98.5%.
In the case of `Nc1ccc2nc(N3CCOCC3)sc2c1`, the binding response (% of control) is reported as inconclusive: 104%.
For `Nc1c2c(nc3sc4c(c13)CCCC4)-c1ccccc1CC2`, the binding response (% of control) was inconclusive: 89.3%.
`NC(=O)c1ccc(NC(=O)COC(=O)c2ccc3c(c2)OCCO3)cc1` was tested, and the binding response (% of control) was inconclusive: 91.5%.
For `CCc1ccc(NC(=O)c2cnn(-c3ccccc3)c2C2CCNCC2)cc1`, the binding response (% of control) was inconclusive: 75.6%.
With `O=C(N/N=C/c1ccccn1)c1ccc2nc[nH]c2c1` the binding response (% of control) was inconclusive: 84.8%.
`O=C(CNS(=O)(=O)/C=C/c1ccccc1)OC1CCOC1=O` (stereo unspecified) was tested, and the binding response (% of control) was inactive: 97%.
In the case of `COc1ccc(CCNC(=O)COC(=O)C23CC4CC(CC(Br)(C4)C2)C3)cc1`, the binding response (% of control) is reported as inactive: 86.8%.
`Fc1ccc(CO/N=C2\CCCc3nonc32)cc1` was tested, and the binding response (% of control) was inactive: 102%.
With `Cc1ccc(C(=O)N2C(CC(=O)Nc3ccc(Cl)cc3)C(=O)NC3CCCCC32)cc1` (stereo unspecified) the binding response (% of control) was inactive: 94%.
`CC(C)NC(=S)N1CCN(C/C=C/c2ccccc2)CC1` was tested, and the binding response (% of control) was inconclusive: 81.1%.
`COc1ccc(N2CC(C(=O)Nc3cc(C)ccn3)CC2=O)cc1` (stereo unspecified) was tested, and the binding response (% of control) was inconclusive: 107%.
In the case of `CC(C)C(=O)O/N=C(\N)c1ccc(Oc2ccc(Cl)cc2)c([N+](=O)[O-])c1`, the binding response (% of control) is reported as inconclusive: 115%.
For `CC(=O)Nc1ccc(Nc2nnc(-c3ccc(C)c(S(=O)(=O)NCC4CCCO4)c3)c3ccccc23)cc1` (stereo unspecified), the binding response (% of control) was inconclusive: 95.2%.
With `Cc1nn(CC#N)c(=O)n1-c1ccccc1` the binding response (% of control) was inactive: 98%.
With `CCCCNC(=O)OCCSCCS(=O)(=O)c1ccc(Cl)cc1` the binding response (% of control) was inconclusive: -94.7%.
For `Cc1ccc(-c2ncns2)cc1`, the binding response (% of control) was inconclusive: 120%.
In the case of `Cc1cc(C)c2c(c1)/C(=c1/sc3n(c1=O)CN(c1ccccc1)CN=3)C(=O)N2`, the binding response (% of control) is reported as inconclusive: 119%.
In the case of `C=C(C)CC(Nc1ccc(OC)cc1)c1ccco1` (stereo unspecified), the binding response (% of control) is reported as inactive: 102%.
With `Cc1c(Nc2c3ccccc3nc3ccccc23)c(=O)n(-c2ccccc2)n1C` the binding response (% of control) was inconclusive: -2.73%.
For `CCN(CC)S(=O)(=O)c1cccc(-c2cn3cccnc3n2)c1`, the binding response (% of control) was inconclusive: 75.1%.
For `C#CCOCCOCCOCCNc1nc(N2CCN(C(=O)[C@H](Cc3cc4ccccc4[nH]3)n3cc([C@@H](N)CC(C)C)nn3)CC2)nc(N2CCN(C(=O)[C@H](Cc3cc4ccccc4[nH]3)n3cc([C@@H](N)CC(C)C)nn3)CC2)n1`, the binding response (% of control) was inactive: 102%.
For `CN(CC(=O)N1CCN(c2cccc(Cl)c2)CC1)S(=O)(=O)c1cnc[nH]1`, the binding response (% of control) was inactive: 96.2%.
In the case of `COc1ccc(CN2CCn3nc(C(=O)NC4CC4)cc3C2=O)cc1`, the binding response (% of control) is reported as inactive: 92.3%.
For `Brc1ccc(-c2c[n+]3c(n2-c2ccccc2)SCC3)cc1`, the binding response (% of control) was inconclusive: 93.5%.
With `N#CC1=C(N)Oc2n[nH]c(-c3cccs3)c2C1c1ccccc1C(=O)O` (stereo unspecified) the binding response (% of control) was inactive: 104%.
`O=C(NC12CC3CC(CC(C3)C1)C2)N1CCN(C2CCCCC2)CC1` was tested, and the binding response (% of control) was inconclusive: 126%.
`CCn1cnc2cc(NCc3cccs3)ccc21` was tested, and the binding response (% of control) was inconclusive: 113%.
With `Cc1ccc(S(=O)(=O)N2CCOCC2)cc1C(=O)NCCCn1ccnc1` the binding response (% of control) was inactive: 92.7%.
In the case of `Cc1ccc(CNC(=O)c2ccc3c(=O)n4c(-c5ccc(C)cc5)csc4nc3c2)cc1`, the binding response (% of control) is reported as inconclusive: 112%.
`CCOc1ccccc1/C=N/OCC(=O)NCc1ccc(F)cc1` was tested, and the binding response (% of control) was inconclusive: 113%.
`O=C(Cn1nc2n(c1=O)-c1ccccc1SC2)N/N=C/c1cccs1` was tested, and the binding response (% of control) was inconclusive: 99.5%.
In the case of `CC1SCC(=NOCc2c(Cl)cccc2Cl)CS1` (stereo unspecified), the binding response (% of control) is reported as inconclusive: 160%.
In the case of `O=C(CNC(=O)C(c1ccccc1)c1ccccc1)N/N=C/c1ccc(O)cc1O`, the binding response (% of control) is reported as inconclusive: 131%.
`Cc1c(Cl)cccc1-n1c(SCC(=O)NCc2ccccc2Cl)nnc1-c1ccncc1` was tested, and the binding response (% of control) was inactive: 101%.
In the case of `O=C(c1ccccc1)n1ccc(-c2cccs2)n1`, the binding response (% of control) is reported as inconclusive: 88.3%.
With `Cc1noc(C)c1C(=O)N1CCC(C(=O)c2ccc(F)cc2F)CC1` the binding response (% of control) was inconclusive: 122%.
In the case of `Cc1nc(-c2ccccc2)sc1-c1nnc(C2CC2)o1`, the binding response (% of control) is reported as inconclusive: 309%.
`O=C(c1ccccc1)c1cc(Cl)ccc1N1C(=O)C=CC1=O` was tested, and the binding response (% of control) was inactive: 97.2%.
With `O=[N+]([O-])c1ccc2c(c1)C(N1CCOCC1)/C(=C/C1(O)CCCCC1)O2` (stereo unspecified) the binding response (% of control) was inactive: 100%.
In the case of `Cc1n[nH]c(=O)nc1NCc1ccccc1Cl`, the binding response (% of control) is reported as inactive: 99%.
With `COc1ccc(Cl)cc1C(=O)Nc1cc(=O)n(C)c(=O)n1C` the binding response (% of control) was inconclusive: 88.6%.
With `COC(=O)c1cn(-c2ccccc2)c(=O)c2ccccc12` the binding response (% of control) was inconclusive: 96.3%.
In the case of `Cc1c(N2CCCC2)cc2c(c1NC(=O)c1ccccc1Cl)C(C)(C)CC2(C)C`, the binding response (% of control) is reported as inconclusive: 17.5%.
For `CC(=O)N/N=C(\N)c1nonc1N`, the binding response (% of control) was inconclusive: 95.7%.
With `COc1ccccc1CCc1nnc(CCC(=O)NCCCOc2cccnc2)o1` the binding response (% of control) was inactive: 97.6%.
With `CCOC(=O)N1CCC(N2Cc3cccc(C(=O)NCc4ccc5c(c4)OCO5)c3C2=O)CC1` the binding response (% of control) was inconclusive: 332%.
For `Nc1ccc(Br)cc1Br`, the binding response (% of control) was inconclusive: 124%.
`COc1ccc(N(CC(=O)N/N=C(\C)CCc2ccccc2)S(=O)(=O)c2ccc(C)cc2)cc1` was tested, and the binding response (% of control) was inconclusive: 108%.
With `COc1ccccc1C(=O)Nc1nnc(SCC(=O)Nc2ccc3c(c2)oc2ccccc23)s1` the binding response (% of control) was inactive: 102%.
`Cc1c(-c2ccc(O)cc2)nc2nc(-c3ccccc3)c(-c3ccccc3)nn12` was tested, and the binding response (% of control) was inconclusive: 140%.
For `CCc1nnc(NC(=O)C2CCCN2C(=O)Nc2ccccc2)s1` (stereo unspecified), the binding response (% of control) was inactive: 90.7%.
In the case of `CCNc1ccc(C(=O)OCC(=O)N(Cc2ccccc2)C(C)(C)C)cc1[N+](=O)[O-]`, the binding response (% of control) is reported as inactive: 98%.
For `COc1ccc(CCNc2ccc(C(CC(N)=O)NC(=O)c3ccccc3)cc2[N+](=O)[O-])cc1` (stereo unspecified), the binding response (% of control) was inconclusive: 112%.
`COc1ccc(S(=O)(=O)NCCCCC(=O)O)cc1C(=O)O` was tested, and the binding response (% of control) was inconclusive: 110%.
For `COc1cccc(OC)c1C(=O)O/N=C(\N)c1ccncc1`, the binding response (% of control) was inconclusive: 131%.
With `COC(=O)C1=C(C)NC(=O)/C1=C\c1cc(C)n(-c2ccc(F)cc2)c1C` the binding response (% of control) was inconclusive: 87.7%.
For `c1csc(-c2nc(CN3CCSCC3)cs2)c1`, the binding response (% of control) was inconclusive: 111%.
`O=c1cc(-c2cccnc2)oc2c1ccc1ccccc12` was tested, and the binding response (% of control) was inconclusive: 154%.
For `Cc1ccc(C)c(CSC2=NN3CCCC(=O)N=C3S2)c1`, the binding response (% of control) was inconclusive: 62.2%.
In the case of `O=C(NCCc1c[nH]c2ccccc12)c1cc2ccccc2oc1=O`, the binding response (% of control) is reported as inconclusive: 69.2%.
For `CC(C)n1c(C(F)(F)F)nc2cc(C(=O)N3CCC(O)CC3)ccc21`, the binding response (% of control) was inconclusive: 99.1%.
`CCOC(=O)Cn1nc(C)n(-c2c(C)cccc2C)c1=O` was tested, and the binding response (% of control) was inconclusive: 113%.
For `O=[N+]([O-])c1cccc(-c2cnc3ccccc3n2)c1`, the binding response (% of control) was inconclusive: 111%.
For `NNC(=O)CSCc1nc(-c2ccc(Cl)cc2)cs1`, the binding response (% of control) was inconclusive: 110%.
In the case of `Cc1ccc([N+](=O)[O-])cc1NC(=O)c1ccccc1`, the binding response (% of control) is reported as inconclusive: 93.5%.
In the case of `COC(=O)c1scc(C)c1NS(=O)(=O)c1ccc(NC(C)=O)cc1`, the binding response (% of control) is reported as inconclusive: 138%.
With `CC(=O)Nc1ccc(S(=O)(=O)Nc2ccc(=O)n(Cc3ccc(Cl)c(Cl)c3)c2)cc1` the binding response (% of control) was inconclusive: 105%.
